In PubChem BioAssay AID624349 (ICCB-Longwood Screening Facility, Harvard Medical School, 2012):
“And” between values parts separate entries of the source, which are not always exact repeats. Equal values may be shown once. Some of the results follow.

Assay: P. berghei load reduction in hepatocytes – cell-based, HepG2, luciferase luminescence, HepG2 viability, primary screen (AID 624349);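 also: 100% = mean of DMSO negative control wells on the same plate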
Conditions: P. berghei liver stage in HepG2, luciferase luminescence; measured here: HepG2 viability without parasites; concentration not given here

SMILES | viability
CN(CCCl)CCCl | 70.5% and 68.2%
